# Test results: US20190135908A1 (Novartis, published 2019)
# Where a chain is given by its changes, count along the chain named. Results are given in words; binding and its absence hold for the method and conditions named. Some entries that bind do so weakly or less than the wild type. For some assays here: Where a sequence is shown, tags or fusion partners need not be part of it.
# T1: GDF15 mutant Q295R (wrist domain), albumin fusion (human) (UniProt Q99988)
# T1 sequence: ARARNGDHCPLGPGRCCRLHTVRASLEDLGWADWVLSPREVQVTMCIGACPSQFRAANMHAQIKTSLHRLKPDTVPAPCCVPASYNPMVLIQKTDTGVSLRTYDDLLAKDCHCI
# T2: Cyno GDF15 (Macaca fascicularis (cynomolgus monkey)) (UniProt G7PWZ3)
# T2 sequence (GDF15, looked up): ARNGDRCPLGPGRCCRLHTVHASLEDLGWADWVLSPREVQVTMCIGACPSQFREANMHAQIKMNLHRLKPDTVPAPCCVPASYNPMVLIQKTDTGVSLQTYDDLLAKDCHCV
# B1: ABGDF15-A (antibody, human IgG1, kappa, V domains shown)
# VH: EVQLVQSGAEVKKPGESLKISCKGSGYSFTDYWISWVRQMPGKGLEWMGIIDPSGSYTIYSPSFQGQVTISADKSISTAYLQWSSLKASDTAMYYCARVSYYGGYFDIWGQGTLVTVSS
# VL: DIQMTQSPSSLSASVGDRVTITCRASQSISNNLNWYQQKPGKAPKLLIYAASNLQSGVPSRFSGSGSGTDFTLTISSLQPEDFATYYCFQLDHSPFTFGQGTKVEIKR
# notes: captured through anti-human Fc in the Biacore assay
# B2: ABGDF15-F (antibody, human IgG1, lambda, V domains shown)
# VH: B1 VH with D31S, S35G, I50V, V99Y, S100G, Y101R, G104T, I108Y
# VL: QSVLTQPPSVSGAPGQRVTISCSGSSSNIGVLYVNWYQQLPGTAPKLLIYSNDNRPSGVPDRFSGSKSGTSASLAITGLQAEDEADYYCQSWDSSSNYVFGGGTKLTVLG
# notes: as for B1
# B3: ABGDF15-G (antibody, human IgG1, kappa, V domains shown)
# VH: QVQLVQSGAEVKKPGSSVKVSCKASGGTFSSHYINWVRQAPGQGLEWMGGIIPAFGGANYAQKFQGRVTITADESTSTAYMELSSLRSEDTAVYYCARFGSVYVSRYSSYYHMDVWGQGTLVTVSS
# VL: DIQMTQSPSSLSASVGDRVTITCRASQTIYRSLAWYQQKPGKAPKLLIYGASILQSGVPSRFSGSGSGTDFTLTISSLQPEDFATYYCLQRYTSPFTFGQGTKVEIKR
# notes: as for B1
# B4: ABGDF15-D (antibody, human IgG1, lambda, V domains shown)
# VH: B1 VH with D31S, S35G, I50V, S54D, V99Y, S100G, Y101R, G104T, I108Y
# VL: B2 VL
# notes: as for B1
# B5: ABGDF15-E (antibody, human IgG1, lambda, V domains shown)
# VH: B1 VH with D31S, S35G, I50V, S54G, V99Y, S100G, Y101R, G104T, I108Y
# VL: B2 VL
# notes: as for B1
# Molecular target: T1, GDF15 mutant Q295R (wrist domain), albumin fusion (human)
# Assay: direct ELISA on coated albumin-fusion GDF15 variant
row,binding,Binder
1,binds,B1
2,binds,B2
3,binds,B3

# Molecular target: T2, Cyno GDF15 (Macaca fascicularis (cynomolgus monkey))
# Assay: direct ELISA: GDF15 variant coated on the plate, serially diluted antibody, anti-human IgG-HRP detection
row,binding,Binder
1,binds,B4
2,binds,B1
3,binds,B5
4,binds,B2
5,binds,B3
